# Results taken from patent US20030096831A1, “Ocular growth and nicotinic antagonists” (priority 2000, published 2003).
# Entries after “also recorded” stand apart in the source; their conditions may differ. Counter-ions that a name gives are not always drawn. At least one compound was matched to its structure with a doubt left.
# Test system: goggled eyes (form-deprivation myopia)
# Experiment: Form-deprivation myopia in unilaterally goggled chicks, intravitreal drug for one week
# [1] = difference goggled vs contralateral open eye, intravitreal, one week, ANOVA over all doses
# [2] = goggled chicks, P<0.05, dose groups that differ
structure (smiles),measurement,setting,value
"CCN1C[C@]2(COC(=O)c3ccccc3N3C(=O)C[C@H](C)C3=O)CC[C@H](OC)[C@@]34[C@@H]5C[C@H]6[C@H](OC)[C@@H]5[C@](O)(C[C@@H]6OC)[C@](O)([C@@H](OC)[C@H]23)[C@@H]14 [methyllycaconitine, methyllcaconitine citrate]","axial length measured by digital calipers, goggled eyes, drug effect",[1],affected
same,"axial length measured by ultrasound, goggled eyes, drug effect",[1],affected
same,"equatorial diameter measured by calipers (equatorial expansion of vitreous cavity), goggled eyes, drug effect",[1],affected
same,"refraction of goggled eyes (myopic refractive error), drug effect",[1],influenced the myopic refraction occurring beneath a goggle
same,"vitreous cavity length measured by ultrasound, goggled eyes, drug effect",[1],did not reach significance
same,"refraction of goggled eyes (myopic refractive error), drug effect","difference goggled vs contralateral open eye, intravitreal, one week, ANOVA over all doses, listed as Methyllycaconitine",affected the myopic refraction
same,Caliper measurements axial length: statistically significant post hoc pairwise comparisons (Tukey test),[2],"the 5 μg dose reduced axial length by calipers compared to the 0.05, 0.5 and 50 μg doses"
same,Caliper measurements equatorial diameter: statistically significant post hoc pairwise comparisons (Tukey test),[2],a significant difference from controls was only identified for the inhibition of equatorial expansion beneath a goggle at the 5 μg dose
same,overall effect on excessive ocular growth / experimental myopia of goggled eyes,"intravitreal, one week",showed the greater efficacy of the two drugs; also recorded: reduced the excessive ocular growth occurring beneath a goggle
